In article doi:10.1101/2023.03.07.531595:

T1: Tld1-mNeonGreen (Saccharomyces cerevisiae) (UniProt Q05611)
T1 sequence: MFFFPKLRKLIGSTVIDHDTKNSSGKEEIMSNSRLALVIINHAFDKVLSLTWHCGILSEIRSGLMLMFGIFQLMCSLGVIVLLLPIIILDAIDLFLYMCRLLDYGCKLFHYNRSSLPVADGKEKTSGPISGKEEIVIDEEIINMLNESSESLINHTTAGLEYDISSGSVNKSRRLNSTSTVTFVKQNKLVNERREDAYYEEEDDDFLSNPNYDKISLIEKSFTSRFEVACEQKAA

B1: Erg6 (protein, UniProt P25087 1-383)
chain: MSETELRKRQAQFTRELHGDDIGKKTGLSALMSKNNSAQKEAVQKYLRNWDGRTDKDAEERRLEDYNEATHSYYNVVTDFYEYGWGSSFHFSRFYKGESFAASIARHEHYLAYKAGIQRGDLVLDVGCGVGGPAREIARFTGCNVIGLNNNDYQIAKAKYYAKKYNLSDQMDFVKGDFMKMDFEENTFDKVYAIEATCHAPKLEGVYSEIYKVLKPGGTFAVYEWVMTDKYDENNPEHRKIAYEIELGDGIPKMFHVDVARKALKNCGFEVLVSEDLADNDDEIPWYYPLTGEWKYVQNLANLATFFRTSYLGRQFTTAMVTVMEKLGLAPEGSKEVTAALENAAVGLVAGGKSKLFTPMMLFVARKPENAETPSQTSQEATQ
B2: Hfd1 (protein, UniProt Q04458 1-532)
chain: MSNDGSKILNYTPVSKIDEIVEISRNFFFEKQLKLSHENNPRKKDLEFRQLQLKKLYYAVKDHEEELIDAMYKDFHRNKIESVLNETTKLMNDILHLIEILPKLIKPRRVSDSSPPFMFGKTIVEKISRGSVLIIAPFNFPLLLAFAPLAAALAAGNTIVLKPSELTPHTAVVMENLLTTAGFPDGLIQVVQGAIDETTRLLDCGKFDLIFYTGSPRVGSIVAEKAAKSLTPCVLELGGKSPTFITENFKASNIKIALKRIFFGAFGNSGQICVSPDYLLVHKSIYPKVIKECESVLNEFYPSFDEQTDFTRMIHEPAYKKAVASINSTNGSKIVPSKISINSDTEDLCLVPPTIVYNIGWDDPLMKQENFAPVLPIIEYEDLDETINKIIEEHDTPLVQYIFSDSQTEINRILTRLRSGDCVVGDTVIHVGITDAPFGGIGTSGYGNYGGYYGFNTFSHERTIFKQPYWNDFTLFMRYPPNSAQKEKLVRFAMERKPWFDRNGNNKWGLRQYFSLSAAVILISTIYAHCSS
B3: Faa1 (protein, UniProt P30624 1-700)
chain: MVAQYTVPVGKAANEHETAPRRNYQCREKPLVRPPNTKCSTVYEFVLECFQKNKNSNAMGWRDVKEIHEESKSVMKKVDGKETSVEKKWMYYELSHYHYNSFDQLTDIMHEIGRGLVKIGLKPNDDDKLHLYAATSHKWMKMFLGAQSQGIPVVTAYDTLGEKGLIHSLVQTGSKAIFTDNSLLPSLIKPVQAAQDVKYIIHFDSISSEDRRQSGKIYQSAHDAINRIKEVRPDIKTFSFDDILKLGKESCNEIDVHPPGKDDLCCIMYTSGSTGEPKGVVLKHSNVVAGVGGASLNVLKFVGNTDRVICFLPLAHIFELVFELLSFYWGACIGYATVKTLTSSSVRNCQGDLQEFKPTIMVGVAAVWETVRKGILNQIDNLPFLTKKIFWTAYNTKLNMQRLHIPGGGALGNLVFKKIRTATGGQLRYLLNGGSPISRDAQEFITNLICPMLIGYGLTETCASTTILDPANFELGVAGDLTGCVTVKLVDVEELGYFAKNNQGEVWITGANVTPEYYKNEEETSQALTSDGWFKTGDIGEWEANGHLKIIDRKKNLVKTMNGEYIALEKLESVYRSNEYVANICVYADQSKTKPVGIIVPNHAPLTKLAKKLGIMEQKDSSINIENYLEDAKLIKAVYSDLLKTGKDQGLVGIELLAGIVFFDGEWTPQNGFVTSAQKLKRKDILNAVKDKVDAVYSSS
B4: Eht1 (protein, UniProt P38295 1-451)
chain: MSEVSKWPAINPFHWGYNGTVSHIVGENGSIKLHLKDNKEQVDFDEFANKYVPTLKNGAQFKLSPYLFTGILQTLYLGAADFSKKFPVFYGREIVKFSDGGVCTADWLIDSWKKDYEFDQSTTSFDKKKFDKDEKATHPEGWPRLQPRTRYLKDNELEELREVDLPLVVILHGLAGGSHEPIIRSLAENLSRSGRFQVVVLNTRGCARSKITTRNLFTAYHTMDIREFLQREKQRHPDRKLYAVGCSFGATMLANYLGEEGDKSPLSAAATLCNPWDLLLSAIRMSQDWWSRTLFSKNIAQFLTRTVQVNMGELGVPNGSLPDHPPTVKNPSFYMFTPENLIKAKSFKSTREFDEVYTAPALGFPNAMEYYKAASSINRVDTIRVPTLVINSRDDPVVGPDQPYSIVEKNPRILYCRTDLGGHLAYLDKDNNSWATKAIAEFFTKFDELVV
B5: Tgl3 (enzyme, UniProt P40308 1-642)
chain: MKETAQEYKVSAVIPTLLKNWILRVVYATLDHIPPFVWEILHVITDIYFFWVQKLINYVRPHSRVIYYNAIKKLDECDTYQMWCQQASVVDEITGANLWRRNFFSRRYDFNSVIEQYSILENMLREEKYDVVKEKFSTTGPCMLRNFAGIGDKKLFTKSLMGTKLLIEQYLTRILEGLDILNNQTLTPTSFFQRCKLSLGTTALILQGGSLFGLFHLGVIRGLLLQDLMPNIISGSSMGACVASLFGCLSNEQLKQLLTDDNLLNIIKNDVDLLKSCGYGNLEQHLNLGTLIQNLIHHGYSQDVYLFIRFVMKYIVKEKTFEEVYQITGKVFNIVIHPTDKSCPNLLNYVTTPNVLIKSAIECSLGSGVISEDTSLLCKNLENEIEPFLNINKNKQVKFLTPENANNPSITESPYTRLTELFNVNNFIVSLARPYLAPLVVNDLKHEIKTSKYYYYKHYPNMPPINANTVRKTQRSSSQSPIKAGTVEDLEPEPLMSPVPPSSAVNDSAEYIIPELGIPQLNFTEMEPLAFKFKYHLERKLKNIATMEFRHRMEVLDNLGLLCSLIKRLIIDEKTPRSATEIAVVPRMKSLSLTRIIEGQLNNIPYWIKSGERSTWPALALIKTRCAVEFKLDDIIRARRSR
B6: Tgl4 (enzyme, UniProt P36165 1-910)
chain: MSSKISDLTSTQNKPLLVTQQLIEKYYEQILGTSQNIIPILNPKNKFIRPSKDNSDVERVEEDAGKRLQTGKNKTTNKVNFNLDTGNEDKLDDDQETVTENENNDIEMVETDEGEDERQGSSLASKCKSFLYNVFVGNYERDILIDKVCSQKQHAMSFEEWCSAGARLDDLTGKTEWKQKLESPLYDYKLIKDLTSRMREERLNRNYAQLLYIIRTNWVRNLGNMGNVNLYRHSHVGTKYLIDEYMMESRLALESLMESDLDDSYLLGILQQTRRNIGRTALVLSGGGTFGLFHIGVLGTLFELDLLPRVISGSSAGAIVASILSVHHKEEIPVLLNHILDKEFNIFKDDKQKSESENLLIKISRFFKNGTWFDNKHLVNTMIEFLGDLTFREAYNRTGKILNITVSPASLFEQPRLLNNLTAPNVLIWSAVCASCSLPGIFPSSPLYEKDPKTGERKPWTGSSSVKFVDGSVDNDLPISRLSEMFNVDHIIACQVNIHVFPFLKLSLSCVGGEIEDEFSARLKQNLSSIYNFMANEAIHILEIGSEMGIAKNALTKLRSVLSQQYSGDITILPDMCMLFRIKELLSNPTKEFLLREITNGAKATWPKVSIIQNHCGQEFALDKAISYIKGRMIVTSSLKTPFQFADSVIGLIKAPEQTSDESKNPENSTLLTRTPTKGDNHISNVLDDNLLESESTNSLLLLRENASTYGRSPSGFRPRYSITSASLNPRHQRRKSDTISTSRRPAKSFSFSVASPTSRMLRQSSKINGHPPPILQKKTSMGRLMFPMDAKTYDPESHELIPHSASIETPAMVDKKLHFGRKSRYLRHMNKKWVSSSNILYTDSDKEDHPTLRLISNFDSDAMIHSDLAGNFRRHSIDGRPPSQATKSSPFRSRPSSSTQHKSTTSFTQ
B7: Tgl5 (enzyme, UniProt Q12043 1-749)
chain: MSNTLPVTEFLLSKYYELSNTPATDSSSLFKWLYHKTLSRKQLLISDLSSQKKHAISYDQWNDIASRLDDLTGLSEWKTIDESSLYNYKLLQDLTIRMRHLRTTHDYHRLLYLIRTKWVRNLGNMNNVNLYRHSHTGTKQIIHDYLEESQAVLTALIHQSNMNDHYLLGILQQTRRNIGRTALVLSGGSTFGLFHIGVLAALFESDLMPKVISGSSAGAIVASIFCVHTTQEIPSLLTNVLNMEFNIFNDDNSKSPNENLLIKISRFCQNGTWFNNQPLINTMLSFLGNLTFREAYNKTGKILNITVSPASIYEQPKLLNNLTAPNVLIWSAVCASCSLPGVFPSTPLFEKDPHTGKIKEWGATNLHLSNMKFMDGSVDNDMPISRLSEMFNVDHIIACQVNIHVFPLLKFSNTCVGGEIEKEITARFRNQVTKIFKFFSDETIHFLDILKELEFHPYLMTKLKHLFLQQYSGNVTILPDLSMVGQFHEVLKNPSQLFLLHQTTLGARATWPKISMIQNNCGQEFALDKAITFLKEKIIISSSIKNPLQFYQPRFSEQIKSLSIMDADLPGVDLEESSSNSLSIIKSPNKTAAPGRFPLQPLPSPSSTFNKRKMDMLSPSPSPSTSPQRSKSSFTQQGTRQKANSLSFAIGASSLRLKKSPLKVPSRPQFKKRSSYYNQNMSAEMRKNRKKSGTISSYDVQTNSEDFPIPAIENGSFDNTLFNPSRFPMDAMSAATNDNFMNNSDIFQN

The binders below were run against T1, Tld1-mNeonGreen (Saccharomyces cerevisiae) (assay: affinity purification with mass spectrometry).
For B1, the binding was “binds”. For B2, the binding was “binds”. B3 was tested, and the binding was “binds”. B4 was tested, and the binding was “binds”. In the case of B5, the binding is reported as “no binding”. B6 was tested, and the binding was “no binding”. With B7 the binding was “no binding”.

Results are given in words; binding and its absence hold for the method and conditions named. Binding seen in cells or lysates may run through a third protein. A yes stands for co-enrichment or nearness to the bait. Other partners may have been found. No binding means not detected with the bait. Where a sequence is shown, tags or fusion partners need not be part of it.
